Measured values published in patent publication US20220280462A1, “SOLID ORAL DOSAGE FORM COMPRISING NAPROXEN AND VITAMIN B1” (DSM IP ASSETS B.V., priority 2019, published 2022).

Assay: Bulk density, tapped density and Carr Index (flowability) of powders and granules
Format: physicochemical
Method: The Carr Index is calculated by the formula 100×(1−BD/TD) and is used as an indication of the flowability.

- BD (bulk density): 0.30 g/mL
- TD (tapped density): 0.55 g/mL
- Carr Index (100×(1−BD/TD), greater than 25 indicates poor flowability): 45
SMILES: COc1ccc2cc([C@H](C)C(=O)O)ccc2c1 [Naproxen Sodium, naproxen sodium]
